Data as given in PubChem BioAssay AID1224830 (NIAID, 2016)

Test: 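Host factors that control LPS-induced TNF expression in human macrophages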 (primary screen)
System: human THP-1 monocytic leukaemia cells, TNF dual-luciferase reporter clone, PMA-differentiated to macrophage-like cells
Reagent: siRNA pool against human genes, 50 nM
Timing: LPS for 4 h, given about 3 days after siRNA transfection
Conditions: bacterial LPS (TLR4 ligand), 10 ng/ml
Measurement: 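TNF firefly reporter luminescence divided by renilla, normalised to the plate median, then turned into a robust z-score for each replicate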
Reading the numbers: TNF reporter robust z-score: higher = stronger TNF reporter response to LPS
Call rule: 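a well is active when its z-score exceeds 2.8 or falls below -1.5; control wells carry no call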
Shown is an unselected part of about 18,000 reagents. Of all reagents, about 2,900 (16%) are marked active. 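Calls are made per well; low scores hint the gene aids the LPS response, high scores that it dampens it.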 Repeated entries: four replicate wells of each siRNA pool.

Depletion of SYPL1 (GeneID 6856) came out at: TNF reporter robust z-score 0.19; inactive.
Knock-down of SYPL1 (GeneID 6856) resulted in: TNF reporter robust z-score 0.2; inactive.
SYPL1 (GeneID 6856) showed TNF reporter robust z-score 0.29; inactive.
SYPL1 (GeneID 6856) gave TNF reporter robust z-score -0.07; inactive.
Knock-down of TUBB4B (GeneID 10383) came out at: TNF reporter robust z-score 0.67; inactive.
Knock-down of TUBB4B (GeneID 10383) came out at: TNF reporter robust z-score 1.68; inactive.
For TUBB4B (GeneID 10383), the entry reads TNF reporter robust z-score 2.05; inactive.
TUBB4B (GeneID 10383) scored TNF reporter robust z-score 0.72; inactive.
ZNF256 (GeneID 10172) scored TNF reporter robust z-score -0.64; inactive.
After knock-down of ZNF256 (GeneID 10172), the record shows TNF reporter robust z-score 0.06; inactive.
After knock-down of ZNF256 (GeneID 10172), the record shows TNF reporter robust z-score -0.67; inactive.
Knock-down of ZNF256 (GeneID 10172) came out at: TNF reporter robust z-score -0.61; inactive.
Against ZNF212 (GeneID 7988) the deposit lists TNF reporter robust z-score 0.1; inactive.
Depletion of ZNF212 (GeneID 7988) resulted in: TNF reporter robust z-score -0.19; inactive.
With knock-down of ZNF212 (GeneID 7988), the record shows TNF reporter robust z-score 0.43; inactive.
Against ZNF212 (GeneID 7988), the values are TNF reporter robust z-score 0.63; inactive.
Silencing of TRIM52 (GeneID 84851) came out at: TNF reporter robust z-score 0.12; inactive.
For TRIM52 (GeneID 84851), the entry reads TNF reporter robust z-score 0.84; inactive.
After knock-down of TRIM52 (GeneID 84851), the record shows TNF reporter robust z-score -0.02; inactive.
After knock-down of TRIM52 (GeneID 84851), the screen gave TNF reporter robust z-score -0.42; inactive.
After knock-down of SOX12 (GeneID 6666), the record shows TNF reporter robust z-score 0.53; inactive.
After knock-down of SOX12 (GeneID 6666), the record shows TNF reporter robust z-score -0.25; inactive.
SOX12 (GeneID 6666) scored TNF reporter robust z-score -0.31; inactive.
Against SOX12 (GeneID 6666), the values are TNF reporter robust z-score -0.59; inactive.
With knock-down of CD2AP (GeneID 23607) the results were TNF reporter robust z-score 0.67; inactive.
CD2AP (GeneID 23607) scored TNF reporter robust z-score -0.44; inactive.
With knock-down of CD2AP (GeneID 23607) the results were TNF reporter robust z-score -0.28; inactive.
For CD2AP (GeneID 23607) the deposit lists TNF reporter robust z-score 0.2; inactive.
Against APBA1 (GeneID 320) the deposit lists TNF reporter robust z-score -1.12; inactive.
Silencing of APBA1 (GeneID 320) resulted in: TNF reporter robust z-score -0.26; inactive.
APBA1 (GeneID 320) gave TNF reporter robust z-score -1.17; inactive.
Silencing of APBA1 (GeneID 320) came out at: TNF reporter robust z-score -0.61; inactive.
For DOLK (GeneID 22845) the deposit lists TNF reporter robust z-score 1.37; inactive.
Silencing of DOLK (GeneID 22845) resulted in: TNF reporter robust z-score 1.44; inactive.
After knock-down of DOLK (GeneID 22845) the results were TNF reporter robust z-score 0.1; inactive.
After knock-down of DOLK (GeneID 22845), the record shows TNF reporter robust z-score 0.88; inactive.
Depletion of C1S (GeneID 716) gave: TNF reporter robust z-score -0.46; inactive.
For C1S (GeneID 716), the values are TNF reporter robust z-score -0.03; inactive.
Silencing of C1S (GeneID 716) resulted in: TNF reporter robust z-score 0.18; inactive.
C1S (GeneID 716) showed TNF reporter robust z-score 0.17; inactive.
With knock-down of SH3GLB2 (GeneID 56904), the record shows TNF reporter robust z-score -1.23; inactive.
After knock-down of SH3GLB2 (GeneID 56904) the results were TNF reporter robust z-score -1; inactive.
For SH3GLB2 (GeneID 56904), the entry reads TNF reporter robust z-score -1.16; inactive.
Against SH3GLB2 (GeneID 56904), the values are TNF reporter robust z-score -1.26; inactive.
LIPN (GeneID 643418) scored TNF reporter robust z-score -0.47; inactive.
For LIPN (GeneID 643418), the values are TNF reporter robust z-score -0.31; inactive.
Against LIPN (GeneID 643418), the entry reads TNF reporter robust z-score -0.55; inactive.
After knock-down of LIPN (GeneID 643418) the results were TNF reporter robust z-score -0.37; inactive.

Reformatted: 2 of the entries above
Gene	TNF reporter robust z-score	outcome
APBA1 (GeneID 320)	-1.12	inactive
APBA1 (GeneID 320)	-0.26	inactive
